PubChem BioAssay AID504793 | Drosophila RNAi Screening Center | 2011
In all, the deposit lists about 23,000 reagents; this is an unselected part of those that have a named target and a result. Over the whole deposit, 62 (0.27%) got an active call. 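Calls come from follow-up tests whose scores are not deposited, so confirmed genes may have low counts here; counts are not normalised per plate.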 Raw values vary from plate to plate and are shown uncorrected. A number with no mark means an inactive call. Reagents against one gene are numbered here. A plus sign joins genes that one reagent is predicted to hit. No sequences are given here.

- Test: 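Whole-genome screen for parts of the DNA damage checkpoint at G2/M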 (primary screen)
- System: Drosophila S2R+ cells
- Reagent: long dsRNA against Drosophila genes, about 0.25 µg dsRNA per well
- Duration: 4 days of dsRNA, then 4 hours of drug before read-out
- Conditions: doxorubicin 0.5 µM for 4 hours to cause double-strand breaks, in cells also given a low, harmless dose of dsRNA against nbs to sensitise the assay
- Measured: 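Per-well count of mitotic cells stained for phospho-histone H3 after doxorubicin exposure, used as mitotic index; counts are raw and not normalised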
- Scale: mitotic cells: higher = more cells in mitosis, weaker G2 arrest
- Call rule: 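Genes are called active only when high mitotic counts were reproduced with independent dsRNAs and mitosis was checked for delay without damage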
- Meaning of the calls: active = confirmed in follow-up tests; inactive = not confirmed

no.	target	reagent no.	mitotic cells, replicate 1
1	Nepl9 (Neprilysin-like 9)	1	6
2	CG12865 (retired record)	1	13
3	CG12865 (retired record)	2	5
4	Rh5 (Rhodopsin 5)	1	4
5	Rh5 (Rhodopsin 5)	2	10
6	CG12498	1	6
7	ATP8B (ATPase 8B)	1	7
8	Pus1 (Pseudouridine synthase 1)	1	11
9	Pus1 (Pseudouridine synthase 1)	2	4
10	CG32797	1	14
11	CG30161	1	5
12	CG3032	1	14
13	CG3032	2	11
14	CG4957	1	4
15	CG4957	2	8
16	Bulli	1	8
17	f (forked)	1	2
18	f (forked)	2	7
19	f (forked)	3	9
20	f (forked)	4	8
21	f (forked)	5	5
22	Dpy-30L2 (Dpy-30-like 2)	1	5
23	Dpy-30L2 (Dpy-30-like 2)	2	8
24	Mob3 (MOB kinase activator 3)	1	3
25	SkpB (SKP1-related B)	1	3
26	SkpB (SKP1-related B)	2	8
27	CG13711	1	6
28	CG13711	2	7
29	CG42812 + CG42811	1	12
30	CG42812 + CG42811	2	8
31	Sodh2 (Sorbitol dehydrogenase 2)	1	5
32	CG4702	1	6
33	nur (nemuri)	1	4
34	nur (nemuri)	2	6
35	CG9377	1	5
36	CG32212 + hpRNA:CR33940	1	8
37	CG32112	1	5
38	Lrr47 (Leucine-rich repeat 47)	1	6
39	Larp7 (La related protein 7)	1	19
40	Larp7 (La related protein 7)	2	2
41	POSH (Plenty of SH3s)	1	9
42	CG7514	1	5
43	CG7514	2	3
44	CG10904	1	5
45	GstD3 (Glutathione S transferase D3)	1	4
46	GstD3 (Glutathione S transferase D3)	2	4

Entries listed so far whose target name begins with G or g (2):
target	reagent no.	mitotic cells, replicate 1
GstD3 (Glutathione S transferase D3)	1	4
GstD3 (Glutathione S transferase D3)	2	4
